# Record: PubChem BioAssay AID743454 (Peter MacCallum Cancer Centre, 2014)
# Screen: 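Search for knock-downs that restore vorinostat killing in resistant colon cancer cells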 (primary screen)
# Cell system: human HCT116-VR colon cancer cells, selected for vorinostat resistance
# Reagent: siRNA pool against human genes, 40 nM siRNA pool
# Timing: vorinostat for 24 h, read-out about 72 h after transfection
# Treatment: vorinostat at 2.5 µM final
# Measured: 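Two measures, CellTiter-Fluor viability and luminescent caspase 3/7 activity, each as fold change against same-plate mock wells, mean of duplicates, then screen-wide robust z-score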
# Reading the numbers: viability robust z-score: higher = more viable cells than screen typical; caspase robust z-score: higher = more caspase 3/7 activity than screen typical
# Rule for the call: 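Hits are knock-downs in viability class RV1/RV2 or caspase class CA1/CA2, excluding ones that killed cells in the no-drug cell-count arm; hits then retested with single siRNAs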
# This is a random part of about 18,000 reagents tested. 450 of all reagents (2.5%) were called active. 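Single biological run; no consistent viability z cut-off exists, so the class columns, not z-scores, define the calls.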 Unmarked entries are inactive. Reagent sequences are not shown.
gene knocked down,viability hit class,caspase hit class,viability robust z-score,caspase robust z-score
PSMC3IP (PSMC3 interacting protein),no change,no change,-0.05,-0.58
MELTF (melanotransferrin),no change,no change,1.05,1.82
TGM1 (transglutaminase 1),no change,no change,-0.09,3.25
OR13C4 (olfactory receptor family 13 subfamily C member 4),no change,no change,1,-0.24
S100A12 (S100 calcium binding protein A12),no change,no change,-1.08,0.08
SPARCL1 (SPARC like 1),no change,no change,0.3,-0.29
AK3 (adenylate kinase 3),no change,no change,-0.06,3.83
USP17L2 (ubiquitin specific peptidase 17 like family member 2),no change,no change,0.12,2.51
PCDH10 (protocadherin 10),no change,no change,0.07,-1.14
AXL (AXL receptor tyrosine kinase),no change,no change,0.08,-0.79
KRT34 (keratin 34),no change,no change,0.68,0.55
WAC (WW domain containing adaptor with coiled-coil),no change,no change,-0.19,1.29
CDH19 (cadherin 19),no change,no change,-1.18,0.74
C9orf40 (chromosome 9 open reading frame 40),no change,no change,-1.01,-0.68
FXYD1 (FXYD domain containing ion transport regulator 1),no change,no change,-0.2,1.13
CD72 (CD72 molecule),no change,no change,1.27,-0.34
CD3D (CD3 delta subunit of T-cell receptor complex),no change,no change,0.29,2.15
COL1A2 (collagen type I alpha 2 chain),no change,no change,0.2,0.57
SRXN1 (sulfiredoxin 1),no change,no change,0.35,-0.79
KLRF1 (killer cell lectin like receptor F1),no change,no change,0.3,-0.49
ANKRD10 (ankyrin repeat domain 10),no change,no change,-0.24,-0.06
"MBTPS1 (membrane bound transcription factor peptidase, site 1)",no change,no change,0.36,-0.56
EFL1 (elongation factor like GTPase 1),no change,no change,-0.22,-0.67
RUNDC3A (RUN domain containing 3A),no change,no change,0.25,0.01
SLC23A3,no change,no change,0.27,-1.14
CYB5R4 (cytochrome b5 reductase 4),no change,no change,-0.84,-0.98
NCBP2 (nuclear cap binding protein subunit 2),no change,no change,-1.88,-0.9
UGGT2 (UDP-glucose glycoprotein glucosyltransferase 2),no change,no change,1.23,-0.18
ATF7IP (activating transcription factor 7 interacting protein),no change,no change,0.59,0.36
DAAM2 (dishevelled associated activator of morphogenesis 2),no change,no change,-0.15,-0.36
DISP2 (dispatched RND transporter family member 2),no change,no change,0.58,0.13
SLC25A33,no change,no change,-0.08,0.01
SLC9A6,no change,no change,0.4,-1.1
GSKIP (GSK3B interacting protein),no change,no change,-2.3,0.8
CCL11 (C-C motif chemokine ligand 11),no change,no change,-0.28,-0.24
APBB3 (amyloid beta precursor protein binding family B member 3),no change,no change,-0.78,0.82
B3GNT6,no change,no change,-2.58,4.75
CT47A10 (cancer/testis antigen family 47 member A10),no change,no change,0.82,2.96
DEFB128 (defensin beta 128),no change,no change,-0.13,-0.94
KCNK16 (potassium two pore domain channel subfamily K member 16),no change,no change,-2.44,3.25
TSPAN1 (tetraspanin 1),no change,no change,0.86,-0.88
AP1AR,no change,no change,1,0.19
CHAT (choline O-acetyltransferase),no change,no change,1.15,-0.49
AOC3 (amine oxidase copper containing 3),no change,no change,-0.3,2.88
IFNA7 (interferon alpha 7),no change,no change,-0.35,0.1
DLGAP4 (DLG associated protein 4),no change,no change,0.07,-0.8
CLEC4E (C-type lectin domain family 4 member E),no change,no change,0.91,-1.1
MRPL22 (mitochondrial ribosomal protein L22),no change,no change,-0.84,1.08
RGN (regucalcin),no change,no change,-0.49,1.28
ZNF24 (zinc finger protein 24),no change,no change,-0.21,1.65
OSCP1,no change,no change,-1.87,-0.54
MLNR (motilin receptor),no change,no change,-0.16,0.44
CXCL17 (C-X-C motif chemokine ligand 17),no change,no change,0.34,-1.14
CRACR2A (calcium release activated channel regulator 2A),no change,no change,-0.08,1.01
ADK (adenosine kinase),no change,no change,-0.08,1.34
SMPDL3A (sphingomyelin phosphodiesterase acid like 3A),no change,no change,1.12,-0.81
COPS7A (COP9 signalosome subunit 7A),no change,no change,-0.62,1.69
